Laboratory results taken from PubChem BioAssay AID2685 (National Center for Advancing Translational Sciences (NCATS), 2010).
The other results are listed elsewhere or left out. Shown are side measurements of this screen, not its main read-out; they come without a call. Most of these compounds were active or inconclusive in the main read-out, so they are no random draw. Potencies come from curve fits of mixed quality, noted in brackets.

Assay: qHTS Assay for Lipid Storage Modulators in Drosophila S3 Cells;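 for cell number change: cells counted by Cell Tracker Red CMTPX staining in the red channel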
Conditions: BODIPY lipid droplet fluorescence, 18-24 h; for cell number change: measured here: cell count max response, cells fed with added oleic acid
Method in brief: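 Drosophila S3 cells got compounds at several concentrations plus oleic acid (400 uM solution). Laser-scanning cytometry with 488 nm excitation read lipid droplets at 500-530 nm and cells at 575-640 nm. Percent activity was relative to 20 uM Triacsin C.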

[1] = measured here: lipid fluorescence (Fed channel) AC50, cells fed with added oleic acid
[2] = measured here: cell number channel AC50, cells fed with added oleic acid

SMILES | cell number change | AC50 [1] | AC50 [2]
Cc1ccc2oc(-c3ccco3)cc(=O)c2c1 | -0.894% | 0.259 µM [rising, partial curve, poor fit] | –
COC(=O)c1nn(-c2ccccc2)c(=O)cc1Oc1ccccc1 | 41.4% | – | 32.6 µM [rising, single point]
CC(C)c1ccc(/C=N/NC(=O)C(=O)NCCCN2CCOCC2)cc1 | – | 6.51 µM [falling, single point] | –
COC(=O)COc1ccc2oc(=O)cc(C)c2c1 | – | 18.4 µM [falling, single point] | –
O=C(CN(c1ccccc1)S(=O)(=O)c1ccc(F)cc1)NC1CCCCCC1 | 16.5% | – | –
Cc1cc(C)n2nc(C(=O)OCC(=O)N(CC(C)C)CC(C)C)nc2n1 | 4.58% | 6.31 µM [rising, single point] | –
COc1ccc(OCC(=O)OCC(=O)NC2CC2)cc1 | 1.74% | 0.116 µM [falling, full curve, poor fit] | –
Nc1ccccc1N=Cc1ccc(-c2cccc(Cl)c2)o1 | -25.2% | 29.1 µM [falling, single point] | –
COc1ccc(C(Sc2ccccc2)c2ccccc2)cc1OC (configuration not stated) | – | 0.00461 µM [falling, full curve, poor fit] | 0.00517 µM [falling, full curve, poor fit]
CC(C)(C)c1ccc(C(=O)NCCC(=O)N2CCC3(CC2)NCCc2[nH]cnc23)cc1 | 17.2% | 2.59 µM [rising, full curve] | –
NC(=O)CSc1nnc(-c2ccc(S(=O)(=O)N3CCCC3)cc2)n1CC1CCCO1 (configuration not stated) | 8.09% | 0.651 µM [falling, full curve] | –
COc1ccc(S(=O)(=O)N2CCOCC2)cc1NC(=O)CN1CCC(Cc2ccccc2)CC1 | 21.7% | 2.06 µM [rising, partial curve] | –
CC1=CC(C)(C)Nc2ccc(OC(=O)C(Cc3ccccc3)N3C(=O)C4CCCCC4C3=O)cc21 (configuration not stated) | -10.4% | 4.61 µM [rising, single point] | –
Cc1sc2c(c1C)CN(C(C)(C)C)CN2C(=O)c1ccccc1 | 13.5% | 6.51 µM [rising, single point] | –
O=C(CN1CCN(C(c2ccccc2)c2ccccc2)CC1)N1CCOCC1 | 2.39% | 0.326 µM [falling, full curve, poor fit] | –
Cc1cc(NC(=O)CCCS(=O)(=O)c2nc(-c3cccs3)cc(C(F)(F)F)n2)no1 | -56.6% | 2.59 µM [falling, partial curve] | 13 µM [falling, partial curve]
NC(=O)C1CCN(C2OC(=O)c3ccccc32)CC1 (configuration not stated) | -8.68% | 0.103 µM [rising, full curve, poor fit] | –
O=C(Nc1ccc2c(c1)OCO2)c1cc(-c2cccnc2)nc2ccccc12 | – | 5.8 µM [rising, single point] | –
Cc1ccc(C(=O)N2CCCC(C(=O)c3cc(F)ccc3F)C2)s1 (configuration not stated) | -17.2% | – | –
O=C(CN1C(=O)c2ccccc2C1=O)N1CCN(c2ccccc2)CC1 | -1.88% | 18.4 µM [rising, single point] | –
C/C=C/Cn1c(SCc2ccccc2)nc2c1c(=O)[nH]c(=O)n2C | -19.5% | – | –

SMILES | cell number change | AC50 [1] | AC50 [2]
O=C(/C=C/c1ccco1)Nc1cccc2cccnc12 | -0.601% | – | –
C=CCNc1cnn(CC(C)=O)c(=O)c1Br | -66.6% | – | 29.1 µM [falling, single point]
CC1CC(C)CN(S(=O)(=O)c2ccc(C(=O)N3CCN(c4ccccc4)CC3)cc2)C1 (configuration not stated) | -34.2% | – | 29.1 µM [falling, single point]
O=C1CC(=O)N(c2cccc(F)c2)N1 | – | 4.11 µM [falling, single point] | 3.66 µM [falling, partial curve]
O=C(Cc1ccc(O)cc1)N/N=C/c1cccnc1 | 32.1% | 18.4 µM [rising, partial curve] | 23.1 µM [rising, single point]
CC(=O)N1CCN(c2ccc(NC(=O)c3cccc(Cl)c3)cc2)CC1 | 16.1% | – | –
CCN(CC)S(=O)(=O)c1ccc2oc(C(=O)NCc3ccc(F)cc3)c(C)c2c1 | -8.02% | 2.91 µM [rising, partial curve] | –
CC(C)Cc1nnc(NC(=O)CCC(=O)N2CCC(C)CC2)s1 | -12.3% | – | –
Cc1cccc(C2=N/C(=C\c3cccnc3)C(=O)O2)c1 | 40.1% | 29.1 µM [rising, single point] | 5.17 µM [rising, full curve, poor fit]
COc1ccc(N(CC(=O)NC2CCCCC2)S(=O)(=O)c2cccnc2)cc1 | -16.5% | – | –
O=C(Nc1ccc(-c2nc3ccccc3[nH]2)cc1)c1cccc(N2C(=O)CCC2=O)c1 | 3.29% | 0.411 µM [rising, single point] | –
O=C(COC(=O)/C=C/c1ccccc1[N+](=O)[O-])NCC(F)(F)F | 2.44% | – | –
COc1cc(/C=C/C(=O)OCC(=O)NCCc2ccccc2)ccc1OC(F)F | – | – | 0.00651 µM [rising, full curve, poor fit]
O=C(/C(=C\c1ccccc1)c1nc2ccccc2[nH]1)c1ccc(Cl)cc1 | -61.7% | 8.2 µM [falling, partial curve] | 14.6 µM [falling, partial curve]
O=C(CN1CCN(C(=O)c2cncn2-c2ccccc2)CC1)Nc1ccccc1Cl | -2.54% | 13 µM [rising, partial curve, poor fit] | –
CN1CCN(C2CC(=O)N(CCc3ccccc3)C2=O)CC1 (configuration not stated) | -23.9% | – | –
O=C(/C=C/c1ccccc1Cl)OCC(=O)c1ccc[nH]1 | -14.8% | 6.51 µM [falling, single point] | –
CCCCC(SCC(=O)Nc1ccccc1)C(=O)O (configuration not stated) | -85.3% | 29.1 µM [falling, single point] | –
CCN(Cc1ccccc1)S(=O)(=O)c1ccc2c(c1)NC(=O)CS2 | – | 29.1 µM [falling, single point] | –
COc1cc(C(=O)NCCC(=O)NCCN2CCOCC2)cc(OC)c1OC | 1.91% | 2.91 µM [falling, full curve] | –

Rewritten as a markdown table: entries from further up.

| SMILES | cell number change | AC50 [1] | AC50 [2] |
| --- | --- | --- | --- |
| C=CCNc1cnn(CC(C)=O)c(=O)c1Br | -66.6% | – | 29.1 µM [falling, single point] |
| O=C(Cc1ccc(O)cc1)N/N=C/c1cccnc1 | 32.1% | 18.4 µM [rising, partial curve] | 23.1 µM [rising, single point] |
| CC(C)Cc1nnc(NC(=O)CCC(=O)N2CCC(C)CC2)s1 | -12.3% | – | – |
